Holding throughout (assay): co-IP
Experiment [1] concerns the target T1, sp-myc-hSema4D (myc-tagged human Sema4D) (human) (UniProt Q92854).
T1 sequence: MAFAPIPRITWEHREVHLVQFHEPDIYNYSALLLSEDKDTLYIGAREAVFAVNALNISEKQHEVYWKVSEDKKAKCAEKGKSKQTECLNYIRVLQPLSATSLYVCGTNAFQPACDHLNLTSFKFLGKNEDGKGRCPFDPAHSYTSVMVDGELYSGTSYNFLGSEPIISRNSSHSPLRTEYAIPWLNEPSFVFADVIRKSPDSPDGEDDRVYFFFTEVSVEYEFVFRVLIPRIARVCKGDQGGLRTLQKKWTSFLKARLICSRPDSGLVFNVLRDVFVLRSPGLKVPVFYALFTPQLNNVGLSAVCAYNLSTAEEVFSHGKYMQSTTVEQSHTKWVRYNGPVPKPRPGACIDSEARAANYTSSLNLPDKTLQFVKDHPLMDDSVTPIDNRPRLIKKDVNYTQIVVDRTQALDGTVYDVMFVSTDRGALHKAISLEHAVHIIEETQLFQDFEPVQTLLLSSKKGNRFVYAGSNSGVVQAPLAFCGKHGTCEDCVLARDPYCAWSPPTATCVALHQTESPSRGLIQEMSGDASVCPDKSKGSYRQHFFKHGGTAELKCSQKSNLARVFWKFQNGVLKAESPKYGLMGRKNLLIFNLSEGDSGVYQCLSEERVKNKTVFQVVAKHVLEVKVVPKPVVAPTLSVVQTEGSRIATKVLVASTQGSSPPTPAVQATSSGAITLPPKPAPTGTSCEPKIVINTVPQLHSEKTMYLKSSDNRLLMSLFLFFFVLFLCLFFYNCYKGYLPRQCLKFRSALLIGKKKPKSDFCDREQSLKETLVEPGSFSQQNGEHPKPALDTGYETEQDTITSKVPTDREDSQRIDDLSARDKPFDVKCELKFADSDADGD

For experiment [2], the target named is T2, sp-myc-hSema4D-Q497P (myc-tagged human Sema4D, 497P variant) (human) (UniProt Q92854).
T2 sequence: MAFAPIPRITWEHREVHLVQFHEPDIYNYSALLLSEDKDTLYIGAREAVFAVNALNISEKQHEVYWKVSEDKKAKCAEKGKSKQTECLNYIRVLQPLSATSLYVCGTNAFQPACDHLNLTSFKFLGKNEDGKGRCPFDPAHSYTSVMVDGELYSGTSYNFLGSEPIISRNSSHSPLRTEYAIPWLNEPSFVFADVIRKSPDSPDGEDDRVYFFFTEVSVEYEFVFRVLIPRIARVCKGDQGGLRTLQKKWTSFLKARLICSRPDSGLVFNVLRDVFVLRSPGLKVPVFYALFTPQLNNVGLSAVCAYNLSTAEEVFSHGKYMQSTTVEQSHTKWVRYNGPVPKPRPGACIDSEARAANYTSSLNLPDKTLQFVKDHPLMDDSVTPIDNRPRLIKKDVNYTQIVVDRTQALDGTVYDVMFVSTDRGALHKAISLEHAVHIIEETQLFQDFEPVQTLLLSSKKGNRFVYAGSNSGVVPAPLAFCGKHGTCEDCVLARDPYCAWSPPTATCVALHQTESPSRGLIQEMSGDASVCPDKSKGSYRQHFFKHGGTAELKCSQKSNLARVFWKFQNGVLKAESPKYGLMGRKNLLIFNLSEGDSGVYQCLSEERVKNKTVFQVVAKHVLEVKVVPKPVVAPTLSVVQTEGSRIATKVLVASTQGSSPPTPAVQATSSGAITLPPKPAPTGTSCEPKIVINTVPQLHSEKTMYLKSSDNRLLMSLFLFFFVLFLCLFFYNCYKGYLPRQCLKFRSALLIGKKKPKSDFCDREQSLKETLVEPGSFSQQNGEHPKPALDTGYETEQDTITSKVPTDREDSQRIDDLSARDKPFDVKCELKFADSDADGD

A further experiment concerns the target T3, N-myc-Sema6A (UniProt O35464).
T3 sequence: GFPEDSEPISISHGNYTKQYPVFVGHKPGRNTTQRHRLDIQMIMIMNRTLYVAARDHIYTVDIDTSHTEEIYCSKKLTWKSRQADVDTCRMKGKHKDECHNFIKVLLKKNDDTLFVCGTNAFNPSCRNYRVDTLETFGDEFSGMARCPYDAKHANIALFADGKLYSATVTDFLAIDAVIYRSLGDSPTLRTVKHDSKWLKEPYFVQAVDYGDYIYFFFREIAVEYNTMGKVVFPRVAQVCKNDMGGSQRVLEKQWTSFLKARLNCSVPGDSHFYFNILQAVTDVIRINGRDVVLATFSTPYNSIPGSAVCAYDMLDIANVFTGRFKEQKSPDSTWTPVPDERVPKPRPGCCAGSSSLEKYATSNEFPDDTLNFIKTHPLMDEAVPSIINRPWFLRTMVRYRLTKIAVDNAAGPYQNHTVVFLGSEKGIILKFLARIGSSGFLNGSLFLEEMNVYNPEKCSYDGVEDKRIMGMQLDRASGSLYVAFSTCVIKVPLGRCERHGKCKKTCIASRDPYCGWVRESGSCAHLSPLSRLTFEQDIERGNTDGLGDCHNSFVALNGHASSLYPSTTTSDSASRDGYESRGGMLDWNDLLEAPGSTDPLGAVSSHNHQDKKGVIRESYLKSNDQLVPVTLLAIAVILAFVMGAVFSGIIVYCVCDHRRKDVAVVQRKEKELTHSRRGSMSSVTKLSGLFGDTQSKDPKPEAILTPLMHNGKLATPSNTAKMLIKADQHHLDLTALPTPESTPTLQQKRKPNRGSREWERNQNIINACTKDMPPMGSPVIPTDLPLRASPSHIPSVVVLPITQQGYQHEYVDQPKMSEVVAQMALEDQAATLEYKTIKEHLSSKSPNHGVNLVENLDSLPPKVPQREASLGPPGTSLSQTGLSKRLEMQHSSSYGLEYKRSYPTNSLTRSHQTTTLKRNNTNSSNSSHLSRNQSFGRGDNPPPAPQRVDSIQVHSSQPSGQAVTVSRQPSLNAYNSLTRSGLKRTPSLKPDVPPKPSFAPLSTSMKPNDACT

For experiment [3], the target named is T4, N-Myc-Sema4D (addgene # 51599) (UniProt O09126).
T4 sequence: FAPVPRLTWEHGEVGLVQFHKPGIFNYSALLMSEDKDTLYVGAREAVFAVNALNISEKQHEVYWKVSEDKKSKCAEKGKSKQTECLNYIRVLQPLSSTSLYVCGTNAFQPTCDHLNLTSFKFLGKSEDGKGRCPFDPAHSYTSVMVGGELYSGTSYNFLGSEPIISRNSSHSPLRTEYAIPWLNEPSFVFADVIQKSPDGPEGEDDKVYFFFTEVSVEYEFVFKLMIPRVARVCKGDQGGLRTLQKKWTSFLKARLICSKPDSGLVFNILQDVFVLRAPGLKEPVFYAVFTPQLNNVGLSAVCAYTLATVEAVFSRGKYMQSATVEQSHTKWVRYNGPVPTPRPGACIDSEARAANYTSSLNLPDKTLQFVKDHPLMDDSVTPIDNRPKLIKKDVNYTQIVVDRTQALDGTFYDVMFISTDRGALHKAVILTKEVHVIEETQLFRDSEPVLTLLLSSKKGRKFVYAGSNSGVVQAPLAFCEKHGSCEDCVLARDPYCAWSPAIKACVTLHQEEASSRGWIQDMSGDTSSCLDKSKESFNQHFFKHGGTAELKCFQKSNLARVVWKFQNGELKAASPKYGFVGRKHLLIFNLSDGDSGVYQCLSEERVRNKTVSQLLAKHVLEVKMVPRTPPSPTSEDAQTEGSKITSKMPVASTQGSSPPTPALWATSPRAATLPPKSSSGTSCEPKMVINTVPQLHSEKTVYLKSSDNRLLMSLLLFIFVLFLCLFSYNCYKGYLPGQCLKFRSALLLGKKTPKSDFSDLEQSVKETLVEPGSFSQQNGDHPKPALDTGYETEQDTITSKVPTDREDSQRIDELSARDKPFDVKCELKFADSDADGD

Results are given in words; binding and its absence hold for the method and conditions named. Binding seen in cells or lysates may run through a third protein. Some entries that bind do so weakly or less than the wild type. Sequences can lack the tags named with a protein.

Consider “sp-flag-hSema4D (flag-tagged human Sema4D) (from UniProt Q92854-1 22-862)”, for which the binding result in experiment [1] and in experiment [2] was “binds” in each case.

B1: C-terminal GFP tagged Sema7A (protein, UniProt Q9QUR8 45-646)
chain: QGHSRSGPRISAVWKGQDHVDFSQPEPHTVLFHEPGSFSVWVGGRGKVYHFNFPEGKNASVRTVNIGSTKGSCQDKQDCGNYITLLERRGNGLLVCGTNARKPSCWNLVNDSVVMSLGEMKGYAPFSPDENSLVLFEGDEVYSTIRKQEYNGKIPRFRRIRGESELYTSDTVMQNPQFIKATIVHQDQAYDDKIYYFFREDNPDKNPEAPLNVSRVAQLCRGDQGGESSLSVSKWNTFLKAMLVCSDAATNRNFNRLQDVFLLPDPSGQWRDTRVYGVFSNPWNYSAVCVYSLGDIDRVFRTSSLKGYHMGLPNPRPGMCLPKKQPIPTETFQVADSHPEVAQRVEPMGPLKTPLFHSKYHYQKVVVHRMQASNGETFHVLYLTTDRGTIHKVVESGDQDHSFVFNIMEIQPFHRAAAIQAISLDADRRKLYVTSQWEVSQVPLDMCEVYSGGCHGCLMSRDPYCGWDQDRCVSIYSSQRSVLQSINPAEPHRECPNPKPDEAPLQKVSLARNSRYYLTCPMESRHATYLWRHEENVEQSCEPGHQSPSCILFIENLTARQYGHYRCEAQEGSYLREAQHWELLPEDRALAEQLMGHARALA
For B1, the binding result with N-myc-Sema6A was “binds weakly”; in experiment [3], “binds”.

B2: Sema4D-Flag (mouse Sema4D with a C-terminal, cytoplasmic flag tag) (protein, UniProt O09126 24-861)
chain: FAPVPRLTWEHGEVGLVQFHKPGIFNYSALLMSEDKDTLYVGAREAVFAVNALNISEKQHEVYWKVSEDKKSKCAEKGKSKQTECLNYIRVLQPLSSTSLYVCGTNAFQPTCDHLNLTSFKFLGKSEDGKGRCPFDPAHSYTSVMVGGELYSGTSYNFLGSEPIISRNSSHSPLRTEYAIPWLNEPSFVFADVIQKSPDGPEGEDDKVYFFFTEVSVEYEFVFKLMIPRVARVCKGDQGGLRTLQKKWTSFLKARLICSKPDSGLVFNILQDVFVLRAPGLKEPVFYAVFTPQLNNVGLSAVCAYTLATVEAVFSRGKYMQSATVEQSHTKWVRYNGPVPTPRPGACIDSEARAANYTSSLNLPDKTLQFVKDHPLMDDSVTPIDNRPKLIKKDVNYTQIVVDRTQALDGTFYDVMFISTDRGALHKAVILTKEVHVIEETQLFRDSEPVLTLLLSSKKGRKFVYAGSNSGVVQAPLAFCEKHGSCEDCVLARDPYCAWSPAIKACVTLHQEEASSRGWIQDMSGDTSSCLDKSKESFNQHFFKHGGTAELKCFQKSNLARVVWKFQNGELKAASPKYGFVGRKHLLIFNLSDGDSGVYQCLSEERVRNKTVSQLLAKHVLEVKMVPRTPPSPTSEDAQTEGSKITSKMPVASTQGSSPPTPALWATSPRAATLPPKSSSGTSCEPKMVINTVPQLHSEKTVYLKSSDNRLLMSLLLFIFVLFLCLFSYNCYKGYLPGQCLKFRSALLLGKKTPKSDFSDLEQSVKETLVEPGSFSQQNGDHPKPALDTGYETEQDTITSKVPTDREDSQRIDELSARDKPFDVKCELKFADSDADGD
As for B2, the binding result in experiment [3] was “binds”.

Values taken from publication doi:10.1101/2023.02.10.527998.
